Reference: the supplement of paper PMC3334620
Whole data set: some 33,000 sequences, median “E-score (-0.5 to 0.5)” near -0.0034, cut for the highest 2% near 0.25. The list shows a part of the results.

What follows are sequences tested against T1, Yap3 (UniProt P38749) (assay: PBM E-score (8-mer binding enrichment) (E-score (-0.5 to 0.5)); higher = stronger / more preferred TF binding). Conditions: protein concentration: 100 nM; construct: GST-full length.
T1 sequence: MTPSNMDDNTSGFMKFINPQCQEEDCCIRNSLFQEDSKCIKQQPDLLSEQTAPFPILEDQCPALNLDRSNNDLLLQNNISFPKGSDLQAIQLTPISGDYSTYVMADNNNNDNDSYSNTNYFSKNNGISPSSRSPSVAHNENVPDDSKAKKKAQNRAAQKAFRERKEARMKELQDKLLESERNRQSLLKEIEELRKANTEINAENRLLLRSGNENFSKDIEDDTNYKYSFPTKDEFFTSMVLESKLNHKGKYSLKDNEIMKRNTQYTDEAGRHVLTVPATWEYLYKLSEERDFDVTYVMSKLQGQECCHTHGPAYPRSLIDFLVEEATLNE
Method in brief: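 The E-score, a modified Wilcoxon-Mann-Whitney statistic, was computed by the Universal PBM Analysis Suite for every ungapped eight-base word pooled with its reverse complement. Scans behind it were normalised with masliner after bound GST-tagged yeast transcription factors were detected with fluorescent anti-GST. The proteins, at about 100-200 nM, had been applied to universal all-10-mer Agilent arrays made double-stranded by primer extension.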
For CAGGTTCG, the “PBM E-score” value was -0.102.
ACGCTTAG was tested, and the “PBM E-score” value was 0.04.
For AGGCGTCA, the “PBM E-score” value was -0.105.
In the case of AGTGTATG, the “PBM E-score” value is reported as 0.0576.
In the case of CTAAGGAC, the “PBM E-score” value is reported as 0.0225.
TTAAGTAA was tested, and the “PBM E-score” value was 0.202.
GACAAAAC was tested, and the “PBM E-score” value was 0.179.
In the case of ATTTATGC, the “PBM E-score” value is reported as 0.0664.
With CGGGGACC the “PBM E-score” value was -0.178.
AAGCATTC was tested, and the “PBM E-score” value was 0.148.
ATTCCGAG was tested, and the “PBM E-score” value was 0.227.
For AGCCGCAG, the “PBM E-score” value was -0.245.
With CGTAATCC the “PBM E-score” value was 0.285.
GAGAGACA was tested, and the “PBM E-score” value was -0.12.
ACTGTACC was tested, and the “PBM E-score” value was -0.0379.
With ACAAGCCT the “PBM E-score” value was -0.0702.
In the case of AGGTATAT, the “PBM E-score” value is reported as 0.212.
For TAGTGACA, the “PBM E-score” value was 0.162.
For GGTAGCTA, the “PBM E-score” value was -0.179.
AGATAAGG was tested, and the “PBM E-score” value was -0.0911.
With ATTGTCAG the “PBM E-score” value was 0.131.
In the case of AGCGACCC, the “PBM E-score” value is reported as -0.303.
With AGGGGATC the “PBM E-score” value was -0.167.
With GTCTGCAA the “PBM E-score” value was -0.0254.
ACCTCAGC was tested, and the “PBM E-score” value was -0.0506.
ATTAGCTC was tested, and the “PBM E-score” value was -0.00222.
In the case of CCGCACCG, the “PBM E-score” value is reported as -0.101.
With ATAACCTA the “PBM E-score” value was 0.112.
In the case of CTTGCCGA, the “PBM E-score” value is reported as -0.092.
GGGGCGCA was tested, and the “PBM E-score” value was -0.228.
In the case of ACACGCTC, the “PBM E-score” value is reported as 0.00032.
In the case of CAGACTCG, the “PBM E-score” value is reported as -0.126.
For ATCTAGCC, the “PBM E-score” value was -0.0943.
In the case of ACATTGAA, the “PBM E-score” value is reported as 0.173.
For GGGCCTGA, the “PBM E-score” value was -0.275.
In the case of CACTCGCC, the “PBM E-score” value is reported as -0.00819.
In the case of AGCCTACA, the “PBM E-score” value is reported as -0.0329.
With ACCGTGAA the “PBM E-score” value was 0.00275.
AGGGCATG was tested, and the “PBM E-score” value was -0.178.
For CGTACAGA, the “PBM E-score” value was 0.0498.
For GACGAATA, the “PBM E-score” value was 0.163.
With AATATGAG the “PBM E-score” value was 0.0655.
In the case of ATCTTCAA, the “PBM E-score” value is reported as 0.116.
AAGGAATG was tested, and the “PBM E-score” value was 0.0437.
ACAGGTGC was tested, and the “PBM E-score” value was -0.162.
For ACTGATGG, the “PBM E-score” value was -0.173.
In the case of AGTGCCAG, the “PBM E-score” value is reported as -0.24.
For ACGTAGTA, the “PBM E-score” value was -0.0131.
For ACGGGCGA, the “PBM E-score” value was -0.249.
In the case of CAACAGCC, the “PBM E-score” value is reported as -0.0309.
For CCGGTACA, the “PBM E-score” value was -0.0509.
ATGTCATC was tested, and the “PBM E-score” value was 0.0326.
For CACGAAGA, the “PBM E-score” value was 0.201.
In the case of ATTACGGA, the “PBM E-score” value is reported as 0.295.
GGAAAAGA was tested, and the “PBM E-score” value was -0.0533.
In the case of AGGATCTA, the “PBM E-score” value is reported as -0.236.
With GATGTAAA the “PBM E-score” value was 0.189.
In the case of TCGTAACA, the “PBM E-score” value is reported as 0.123.
In the case of AATCCCGT, the “PBM E-score” value is reported as 0.183.
GGCCGCAC was tested, and the “PBM E-score” value was -0.16.
ATGGAACA was tested, and the “PBM E-score” value was 0.0389.
For AGGGAAAC, the “PBM E-score” value was -0.125.
With TATGATCA the “PBM E-score” value was 0.202.
GATCCGAA was tested, and the “PBM E-score” value was 0.213.
For AGAGGTAA, the “PBM E-score” value was -0.0121.
CCCTTAGC was tested, and the “PBM E-score” value was -0.14.
With CGTTAAAC the “PBM E-score” value was 0.174.
For CACTAAAA, the “PBM E-score” value was 0.237.
In the case of AACGAAGA, the “PBM E-score” value is reported as 0.107.
GGCCGAAA was tested, and the “PBM E-score” value was -0.0138.
In the case of CTCCTTGC, the “PBM E-score” value is reported as -0.121.
For AGAATGGG, the “PBM E-score” value was -0.0646.
For CCTATGGC, the “PBM E-score” value was -0.128.
With AAACGGTC the “PBM E-score” value was -0.0399.
ACTCAGGA was tested, and the “PBM E-score” value was -0.111.
With GCCGCGCA the “PBM E-score” value was -0.149.
GCGGTAAC was tested, and the “PBM E-score” value was 0.0126.
AAGATCGG was tested, and the “PBM E-score” value was -0.143.
In the case of AAAACGTG, the “PBM E-score” value is reported as 0.141.
With CTCACTGA the “PBM E-score” value was -0.0204.
For CACCGGCC, the “PBM E-score” value was -0.414.
For GGGCAGAC, the “PBM E-score” value was -0.272.
In the case of AAAAGTTA, the “PBM E-score” value is reported as 0.195.
In the case of GCGTACGC, the “PBM E-score” value is reported as -0.192.
With ACTTTCGA the “PBM E-score” value was 0.0591.
With GGCAGTGA the “PBM E-score” value was -0.194.
